Test results taken from PubChem BioAssay AID330 (DTP/NCI, 2004).
The list shows only some results of the screen, not a fair sample: it is rich in T/C values a quarter to a half above the control, in often repeated tests (any T/C) and in doses without a T/C. Other doses and runs of a compound stand elsewhere. T/C: endpoint of the treated group in % of that of the vehicle group. Some doses have a count of surviving animals in place of a T/C: the source holds a T/C of zero for them, seemingly a mark for toxic or unscored doses. Some doses without a T/C left all or most animals alive at the check, yet need not have been tolerated: survival well below the control is almost never listed, so the zero probably covers shortened survival too. Counts of survivors are from the toxicity check (mostly the fifth day) where no day follows; animals may have died later. Schedule codes are those of the source, read here as Q, the interval in days (D) or hours (H), X, the number of doses. Some doses were run more than once; the results are listed from low to high. For survival time, the PubChem record calls one and a half times the control and up active, and a quarter to a half above the control has no call in these data; cut-offs in other NCI protocols can differ. Some T/C values carry the count of animals alive at the toxicity check (mostly the fifth day); without a count, all were alive then. Counts like (3×) count equal records among those shown.

Test system: P388 leukemia ip, CD2F1 mice, survival T/C
Experiment: NCI In Vivo Anticancer Drug Screen. Data for tumor model P388 Leukemia (intraperitoneal) in CD2F1 (CDF1) mice
Details: T/C endpoint: median survival time, higher T/C = longer survival
[1] = dose: 18.75 mg/kg/injection, schedule: Q01DX009 (ip), vehicle: other
[2] = dose: 200.0 mg/kg/injection, schedule: Q01DX005 (ip), vehicle: distilled water + Tween-80

For `CC(C)NC(=O)OCc1c(COC(=O)NC(C)C)c(-c2ccc(Cl)c(Cl)c2)n2c1CCC2`, the T/C (dose: 0.58 mg/kg/injection, schedule: Q01DX009 (ip), vehicle: other) was 128 % of control, the T/C (dose: 1.17 mg/kg/injection, schedule: Q01DX009 (ip), vehicle: other) was 133 and 139 % of control and the T/C (dose: 1.17 mg/kg/injection, schedule: Q01DX009 (ip), vehicle: saline with Tween-80) was 136 % of control. The T/C (dose: 1.5 mg/kg/injection, schedule: Q01DX009 (ip), vehicle: other) was 130 % of control, the T/C (dose: 1.56 mg/kg/injection, schedule: Q01DX009 (ip), vehicle: other, evaluated on day 30) was 129 % of control and the T/C (dose: 1.56 mg/kg/injection, schedule: Q01DX009 (ip), vehicle: other, evaluated on day 60) was 130 % of control. For the same molecule, the T/C (dose: 1.56 mg/kg/injection, schedule: Q01DX009 (ip), vehicle: saline with Tween-80) was 134 % of control, the T/C (dose: 2.34 mg/kg/injection, schedule: Q01DX009 (ip), vehicle: other) was 142 % of control and the T/C (dose: 2.34 mg/kg/injection, schedule: Q01DX009 (ip), vehicle: saline with Tween-80) was 134 % of control. The T/C (dose: 2.5 mg/kg/injection, schedule: Q01DX009 (ip), vehicle: Klucel (hydroxypropylcellulose) (HPC)) was 135 % of control, the T/C (dose: 3.0 mg/kg/injection, schedule: Q01DX005 (ip), vehicle: other) was 126 % of control [9 of 10 alive] and the T/C (dose: 3.0 mg/kg/injection, schedule: Q01DX009 (ip), vehicle: other) was 141 % of control. For the same molecule, the T/C (dose: 3.12 mg/kg/injection, schedule: Q01DX009 (ip), vehicle: Klucel (hydroxypropylcellulose) (HPC)) was 125 % of control, the T/C (dose: 3.12 mg/kg/injection, schedule: Q01DX009 (ip), vehicle: distilled water + Tween-80) was 130, 141, 145, 147, 150 % of control and the T/C (dose: 3.12 mg/kg/injection, schedule: Q01DX009 (ip), vehicle: other) was 143 % of control. The T/C (dose: 3.12 mg/kg/injection, schedule: Q01DX009 (ip), vehicle: saline with Tween-80) was 145 % of control, the T/C (dose: 3.13 mg/kg/injection, schedule: Q01DX009 (ip), vehicle: other) was 140 % of control and the T/C (dose: 4.69 mg/kg/injection, schedule: Q01DX009 (ip), vehicle: other) was 145 % of control. The T/C (dose: 5.0 mg/kg/injection, schedule: Q01DX009 (ip), vehicle: Klucel (hydroxypropylcellulose) (HPC)) was 127 % of control, the T/C (dose: 6.0 mg/kg/injection, schedule: Q01DX001 (ip), vehicle: other) was 126 % of control and the T/C (dose: 6.0 mg/kg/injection, schedule: Q01DX005 (ip), vehicle: other) was 133 % of control. The T/C (dose: 6.25 mg/kg/injection, schedule: Q01DX005 (ip), vehicle: Klucel (hydroxypropylcellulose) (HPC)) was 144 % of control, the T/C (dose: 6.25 mg/kg/injection, schedule: Q01DX005 (ip), vehicle: distilled water + Tween-80) was 118, 124, 126 (2×), 128, 129 (3×), 131 (2×), 136, 138, 140, 141, 143, 150, 151 (2×), 176 % of control and the T/C (dose: 6.25 mg/kg/injection, schedule: Q01DX009 (ip), vehicle: Klucel (hydroxypropylcellulose) (HPC)) was 142 % of control. The T/C (dose: 6.25 mg/kg/injection, schedule: Q01DX009 (ip), vehicle: distilled water + Tween-80, evaluated on day 30) was 129, 142, 148, 149 (2×), 151 % of control, the T/C (dose: 6.25 mg/kg/injection, schedule: Q01DX009 (ip), vehicle: distilled water + Tween-80, evaluated on day 45) was 141 % of control and the T/C (dose: 9.38 mg/kg/injection, schedule: Q01DX009 (ip), vehicle: saline with Tween-80) was 145 % of control. The T/C (dose: 10.0 mg/kg/injection, schedule: Q01DX009 (ip), vehicle: Klucel (hydroxypropylcellulose) (HPC)) was 141 % of control, the T/C (dose: 12.0 mg/kg/injection, schedule: Q01DX001 (ip), vehicle: other) was 130 % of control and the T/C (dose: 12.0 mg/kg/injection, schedule: Q01DX005 (iv), vehicle: other) was 125 % of control. The T/C (dose: 12.5 mg/kg/injection, schedule: Q01DX005 (ip), vehicle: distilled water + Tween-80) was 121, 125, 132 (2×), 133 (2×), 136, 140, 141 (2×), 142, 143, 145, 147, 149 (2×), 151, 156, 157, 161, 166, 179 % of control, the T/C (dose: 12.5 mg/kg/injection, schedule: Q01DX005 (ip), vehicle: saline with Tween-80) was 146 % of control and the T/C (dose: 12.5 mg/kg/injection, schedule: Q01DX009 (ip), vehicle: Klucel (hydroxypropylcellulose) (HPC)) was 149 % of control. The T/C (dose: 12.5 mg/kg/injection, schedule: Q01DX009 (ip), vehicle: distilled water + Tween-80, evaluated on day 30) was 137, 161, 164, 165, 177, 178 % of control, the T/C (dose: 12.5 mg/kg/injection, schedule: Q01DX009 (ip), vehicle: distilled water + Tween-80, evaluated on day 45) was 148 % of control and the T/C (dose: 15.0 mg/kg/injection, schedule: Q01DX005 (ip), vehicle: saline with Tween-80) was 125 % of control. For the same molecule, the T/C [1] was 125 % of control, the survivor count [1] was 8 of 8 and the T/C (dose: 20.0 mg/kg/injection, schedule: Q01DX009 (ip), vehicle: Klucel (hydroxypropylcellulose) (HPC)) was 144 % of control. For the same molecule, the T/C (dose: 24.0 mg/kg/injection, schedule: Q01DX001 (ip), vehicle: other) was 144 % of control, the T/C (dose: 24.0 mg/kg/injection, schedule: Q01DX001 (iv), vehicle: other) was 126 % of control and the T/C (dose: 24.0 mg/kg/injection, schedule: Q01DX005 (iv), vehicle: other) was 135 % of control. The T/C (dose: 25.0 mg/kg/injection, schedule: Q01DX005 (ip), vehicle: distilled water + Tween-80) was 144, 146, 147, 151, 155, 160 (2×), 161, 163, 165, 166, 167, 168, 169 [5 of 6 alive], 172 (3×), 175 (2×), 178, 189, 193 % of control, the T/C (dose: 25.0 mg/kg/injection, schedule: Q01DX009 (ip), vehicle: distilled water + Tween-80, evaluated on day 30) was 147, 151, 181, 187, 194, 226 % of control and the T/C (dose: 25.0 mg/kg/injection, schedule: Q01DX009 (ip), vehicle: distilled water + Tween-80, evaluated on day 45) was 222 % of control. For the same molecule, the survivor count (dose: 25.0 mg/kg/injection, schedule: Q01DX009 (ip), vehicle: other) was 6 of 6, the T/C (dose: 30.0 mg/kg/injection, schedule: Q01DX005 (ip), vehicle: saline with Tween-80) was 139 % of control and the survivor count (dose: 37.5 mg/kg/injection, schedule: Q01DX009 (ip), vehicle: other) was 6 of 8 and 8 of 8. The T/C (dose: 48.0 mg/kg/injection, schedule: Q01DX001 (iv), vehicle: other) was 147 % of control, the survivor count (dose: 48.0 mg/kg/injection, schedule: Q01DX005 (iv), vehicle: other) was 7 of 10 and the T/C (dose: 50.0 mg/kg/injection, schedule: Q01DX005 (ip), vehicle: distilled water + Tween-80) was 129, 159, 166, 167, 169, 172 [5 of 6 alive], 179, 185, 186, 193, 195, 196, 197, 198, 200, 202, 203, 206, 211, 213, 219, 225 % of control. For the same molecule, the T/C (dose: 50.0 mg/kg/injection, schedule: Q01DX005 (ip), vehicle: saline with Tween-80) was 135 % of control, the T/C (dose: 50.0 mg/kg/injection, schedule: Q01DX009 (ip), vehicle: distilled water + Tween-80, evaluated on day 30) was 115, 130, 131, 158, 160, 177 % of control and the T/C (dose: 50.0 mg/kg/injection, schedule: Q01DX009 (ip), vehicle: distilled water + Tween-80, evaluated on day 45) was 166 % of control. The survivor count (dose: 50.0 mg/kg/injection, schedule: Q01DX009 (ip), vehicle: other) was 2 of 6 and 8 of 10, the survivor count (dose: 75.0 mg/kg/injection, schedule: Q01DX009 (ip), vehicle: other) was 4 of 8 and the survivor count (dose: 75.0 mg/kg/injection, schedule: Q01DX009 (ip), vehicle: saline with Tween-80) was 8 of 8. For the same molecule, the T/C (dose: 80.0 mg/kg/injection, schedule: Q01DX009 (ip), vehicle: Klucel (hydroxypropylcellulose) (HPC)) was 126 % of control, the T/C (dose: 100.0 mg/kg/injection, schedule: Q01DX005 (ip), vehicle: distilled water + Tween-80) was 86 [5 of 6 alive], 91, 129, 135, 147, 148, 165, 184 (2×), 186, 193, 198, 209, 211, 219, 221, 222, 223, 227, 229, 256, 261 % of control and the survivor count (dose: 100.0 mg/kg/injection, schedule: Q01DX005 (ip), vehicle: other) was 5 of 6. The survivor count (dose: 100.0 mg/kg/injection, schedule: Q01DX009 (ip), vehicle: other) was 3 of 10, the T/C (dose: 120.0 mg/kg/injection, schedule: Q01DX005 (ip), vehicle: saline with Tween-80) was 130 % of control and the T/C [2] was 137 % of control. For the same molecule, the survivor count [2] was 5 of 6.
With `COc1ccc(C(=O)CC[N+](C)(C)C)cc1` the survivor count (dose: 50.0 mg/kg/injection, schedule: Q01DX009 (ip), vehicle: saline) was 1 of 6 and 6 of 6, the survivor count (dose: 100.0 mg/kg/injection, schedule: Q01DX009 (ip), vehicle: saline) was 0 of 6 and the survivor count (dose: 200.0 mg/kg/injection, schedule: Q01DX009 (ip), vehicle: saline) was 0 of 6.
